Values quoted from earlier work, collected in patent US7645735B2, “Anti-angiogenic peptides for treating or preventing endometriosis” (Children's Medical Center Corporation, priority 2003, dated 2010).

Details: cited from earlier work

B1: human endostatin (EntreMed): recombinant human endostatin, gift from EntreMed Corporation (protein, listed as Homo sapiens)
chain: HSHRDFQPVLHLVALNSPLSGGMRGIRGADFQCFQQARAVGLAGTFRAFLSSRLQDLYSIVRRADRAAVPIVNLKDELLFPSWEALFSGSEGPLKPGARIFSFNGKDVLTHPTWPQKSVWHGSDPNGRRLTESYCETWRTEAPSATGQAYSLLGGRLLGQSAASCHHAYIVLCIENSFMTASK
atoms of zinc bound per molecule of endostatin (Sim et al. (1999)): 10 atoms of zinc per molecule
zinc per endostatin molecule (crystal structure studies, Ding et al. (1998)): 1 atom of zinc/endostatin molecule
